Assay results as given in paper PMC7862700.
This is a selection; strong and weak results do not stand in their true shares. At the low end of the ranking, values are background and their order means little.

Chains of the proteins cited; added tags and fusions are not shown. Lines headed by an entry give the natural chain unless they say otherwise; changes in a name come on top.
UniProt Q9Y603: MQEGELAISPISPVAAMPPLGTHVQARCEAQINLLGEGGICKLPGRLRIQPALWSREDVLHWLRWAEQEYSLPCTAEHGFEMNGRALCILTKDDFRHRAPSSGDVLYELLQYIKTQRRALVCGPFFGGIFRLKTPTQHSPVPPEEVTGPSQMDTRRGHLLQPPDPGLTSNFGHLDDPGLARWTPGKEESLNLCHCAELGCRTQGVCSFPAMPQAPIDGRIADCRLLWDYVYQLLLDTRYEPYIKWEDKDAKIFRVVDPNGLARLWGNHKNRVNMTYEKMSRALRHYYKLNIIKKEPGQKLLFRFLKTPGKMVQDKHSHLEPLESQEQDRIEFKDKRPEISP
UniProt P41212: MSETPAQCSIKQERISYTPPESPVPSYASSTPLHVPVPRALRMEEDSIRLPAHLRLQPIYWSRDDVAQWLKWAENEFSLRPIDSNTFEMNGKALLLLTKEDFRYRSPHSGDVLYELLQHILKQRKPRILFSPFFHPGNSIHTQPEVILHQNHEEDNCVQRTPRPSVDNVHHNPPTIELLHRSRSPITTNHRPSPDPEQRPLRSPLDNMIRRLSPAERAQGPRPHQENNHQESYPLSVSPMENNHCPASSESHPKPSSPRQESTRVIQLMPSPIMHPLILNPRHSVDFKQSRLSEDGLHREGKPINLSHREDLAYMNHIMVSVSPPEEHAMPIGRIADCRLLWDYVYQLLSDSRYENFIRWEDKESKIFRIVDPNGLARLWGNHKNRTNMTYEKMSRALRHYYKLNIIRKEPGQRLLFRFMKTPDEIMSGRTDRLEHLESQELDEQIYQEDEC

What was measured:
Assay in all cases: DAPPL (digital affinity profiling via proximity ligation, sequencing)
Details in all cases: 10 mM Tris-HCl pH 7.5, 50 mM NaCl, 1 mM DTT, 4% glycerol, room temperature, 30 min; GST-TFs on glutathione beads, 16-mer random dsDNA library, 0.1% …; high values mean tight binding; double strand, one strand shown; scale: fold enrichment (6-mer frequency, TF over GST control)
[1] = biological target: T1, ELF3 (UniProt P78545)
T1 sequence: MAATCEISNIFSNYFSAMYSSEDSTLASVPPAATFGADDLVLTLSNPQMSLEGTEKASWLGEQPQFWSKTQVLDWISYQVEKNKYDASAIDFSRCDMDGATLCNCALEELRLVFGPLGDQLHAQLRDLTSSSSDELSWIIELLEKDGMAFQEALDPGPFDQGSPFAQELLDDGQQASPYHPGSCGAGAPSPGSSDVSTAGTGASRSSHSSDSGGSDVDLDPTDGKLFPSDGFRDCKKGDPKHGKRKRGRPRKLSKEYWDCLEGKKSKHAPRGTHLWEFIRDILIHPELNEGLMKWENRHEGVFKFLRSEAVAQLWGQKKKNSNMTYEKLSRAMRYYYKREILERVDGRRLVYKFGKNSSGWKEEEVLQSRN

[2] = biological target: ETV7 (UniProt Q9Y603)
[3] = biological target: ETV6 (UniProt P41212)

Sequence | binding signal [1] | binding signal [2] | binding signal [3]
GAGAGT | 0.313 | 0.431 | 0.361
GCGGGC | 0.755 | 0.842 | 0.715
TAGAGT | 0.902 | 0.803 | 0.691
GAGGAC | 0.566 | 0.589 | 0.602
GAGTGC | 0.528 | 0.698 | 0.68
GTCTGA | 0.834 | 0.779 | 0.782
GCAGGA | 0.9 | 0.759 | 0.86
ACTAGT | 0.846 | 0.893 | 0.896
CAAGGG | 0.87 | 0.977 | 0.878
GGCCAG | 0.466 | 0.493 | 0.475
ACAGTC | 0.447 | 0.499 | 0.392
CCGTCG | 0.817 | 0.865 | 0.759
AACCGT | 0.487 | 0.502 | 0.525
GCAGCG | 0.642 | 0.912 | 0.801
GGAGTA | 0.353 | 0.4 | 0.361
GTCGAA | 0.58 | 0.714 | 0.644
CACCAG | 0.829 | 0.734 | 0.722
TGCGGG | 0.817 | 0.854 | 0.854
GGGACC | 0.639 | 0.646 | 0.614
GTGAGA | 0.352 | 0.36 | 0.289
GGCAAG | 0.757 | 0.65 | 0.745

Sequence | binding signal [1] | binding signal [2] | binding signal [3]
GCAGTT | 0.842 | 0.844 | 0.856
GTGAAG | 0.535 | 0.589 | 0.559
GTCGTG | 0.403 | 0.454 | 0.391
AGAGAG | 0.605 | 0.628 | 0.529
CGCAGT | 0.675 | 0.788 | 0.777
AGAGCA | 0.785 | 0.732 | 0.75
CAGTGT | 0.749 | 0.781 | 0.645
GGTACC | 0.894 | 0.768 | 0.716
CAGGGA | 0.565 | 0.591 | 0.539
GTACGG | 0.927 | 0.892 | 0.904
TACGTG | 0.693 | 0.657 | 0.685
AAAGTG | 0.861 | 1.04 | 0.875
CGGGGA | 0.379 | 0.504 | 0.403
CCGGGC | 0.792 | 0.914 | 0.885
CGAGCC | 0.809 | 0.857 | 0.899
TCGGAA | 0.615 | 0.569 | 0.612
CAGGCA | 0.76 | 0.825 | 0.759
GGGATC | 0.551 | 0.616 | 0.633
GCACGG | 0.87 | 0.794 | 0.768
GCCATG | 0.823 | 0.731 | 0.777
GGGCGA | 0.768 | 0.855 | 0.834

Sequence | binding signal [1] | binding signal [2] | binding signal [3]
AGACTG | 0.481 | 0.574 | 0.536
GGGCCG | 0.52 | 0.617 | 0.646
GTCGTA | 0.563 | 0.667 | 0.582
AGTCAC | 0.878 | 0.836 | 0.759
TAGACG | 0.794 | 0.692 | 0.759
GTGAGG | 0.234 | 0.309 | 0.227
AGTAGG | 0.678 | 0.735 | 0.721
GGGTGT | 0.863 | 0.811 | 0.772
CGTGGC | 0.965 | 0.971 | 0.946
TCGGAG | 0.181 | 0.259 | 0.181
CCTGAG | 0.818 | 0.776 | 0.823
CGGGCG | 0.387 | 0.527 | 0.401
TAGGCG | 0.541 | 0.662 | 0.614
GGTTGG | 0.664 | 0.756 | 0.782
GTCATG | 0.835 | 0.855 | 0.852
AGGAGG | 0.204 | 0.283 | 0.227
TAGGGA | 0.828 | 0.88 | 0.771
GTGAAT | 0.795 | 0.851 | 0.78
GGGATG | 0.954 | 0.941 | 0.9
CTGGGA | 0.855 | 0.804 | 0.877
TGGGGC | 0.713 | 0.708 | 0.857

Sequence | binding signal [1] | binding signal [2] | binding signal [3]
GAGGGC | 0.672 | 0.636 | 0.655
GCCGGC | 0.801 | 0.816 | 0.868
GGCGCC | 0.736 | 0.575 | 0.778
ACGAGA | 0.679 | 0.701 | 0.701
GAACGG | 0.569 | 0.611 | 0.593
GCGGTA | 0.688 | 0.742 | 0.754
GAGAGG | 0.605 | 0.599 | 0.52
AACGAG | 0.88 | 0.825 | 0.782
GCGTGA | 0.286 | 0.31 | 0.269
GTGGGT | 0.542 | 0.501 | 0.492
GCCCGT | 0.618 | 0.704 | 0.669
AGCCGC | 0.925 | 0.982 | 0.826
GGGGTC | 0.695 | 0.712 | 0.637
GGGTAA | 0.867 | 0.959 | 0.841
GACGCG | 0.613 | 0.628 | 0.604
CAGGGC | 0.762 | 0.808 | 0.808
GACCCT | 0.952 | 0.911 | 0.914
GGCGGG | 0.274 | 0.42 | 0.33
TAGAGC | 0.774 | 0.725 | 0.754
AGATTG | 0.78 | 0.838 | 0.773
TAGGGG | 0.903 | 0.991 | 0.875

Some values from the list.
binding signal [3], GTCGTA reads 0.582
binding signal [2], GTGAAG reads 0.589
binding signal [3], CTGGGA reads 0.877
